No constants are given. Whether binding was seen depends on the method and setting. In cells and extracts the contact can be indirect. A yes stands for co-enrichment or nearness to the bait. Other partners may have been found. For part of these data: A no says only that the protein was not detected with the bait. For part of these data: Tags and fused reporters may be left off the sequences shown.
Tests used:
Test in all cases: affinity purification with mass spectrometry; TAP/MS; TAP-tagged bait transfected alone (or with empty vector) in HEK293T cells; TEV cleavage omitted; eluates on Velos-Pro Orbitrap Elite; protein FDR 2.5%
[1] = target: P2RY1 (P2Y purinergic receptor 1), TAP-tagged (human) (UniProt P47900)
[2] = target: CXCR1 (chemokine receptor), TAP-tagged (human) (UniProt P25024)
[3] = target: HTR2A (5-hydroxytryptamine type 2A receptor), TAP-tagged (human) (UniProt P28223)
[4] = target: HTR2C (5-hydroxytryptamine type 2C receptor), TAP-tagged (human) (UniProt P28335)
[5] = target: SSTR4 (somatostatin receptor 4), TAP-tagged (human) (UniProt P31391)
[6] = target: S1PR2 (sphingosine-1-phosphate type 2 receptor), TAP-tagged (human) (UniProt O95136)
[7] = target: LPAR2 (lysophosphatidic acid type 2 receptor), TAP-tagged (human) (UniProt Q9HBW0)
[8] = target: MCHR2 (melanin-concentrating hormone type 2 receptor), TAP-tagged (human) (UniProt Q969V1)
[9] = target: CYSLTR2 (cysteinyl leukotriene 2 receptor), TAP-tagged (human) (UniProt Q9NS75)
[10] = target: ADRA2B (α2B-adrenergic receptor), TAP-tagged (human) (UniProt P18089)
[11] = target: HTR2B (5-hydroxytryptamine type 2B receptor), TAP-tagged (human) (UniProt P41595)
[12] = target: CXCR3 (chemokine receptor), TAP-tagged (human) (UniProt P49682)
[13] = target: SSTR5 (somatostatin receptor 5), TAP-tagged (human) (UniProt P35346)
[14] = target: T1, MAS1 (proto-oncogene MAS type I), TAP-tagged (human) (UniProt P04201)
T1 sequence: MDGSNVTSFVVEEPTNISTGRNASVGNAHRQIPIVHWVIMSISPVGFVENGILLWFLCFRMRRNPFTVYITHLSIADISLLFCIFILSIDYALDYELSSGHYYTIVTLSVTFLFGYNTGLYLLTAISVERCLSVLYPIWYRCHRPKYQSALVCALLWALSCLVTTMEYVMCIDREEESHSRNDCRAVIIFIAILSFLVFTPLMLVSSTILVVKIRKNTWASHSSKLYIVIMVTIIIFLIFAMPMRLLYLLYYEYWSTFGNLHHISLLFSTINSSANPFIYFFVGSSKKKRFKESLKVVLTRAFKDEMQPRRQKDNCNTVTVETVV

Sequences of proteins named here, by UniProt entry; tags and fusion partners are left off. A change or cut given only in a name is not applied to a line headed by its entry.
UniProt P47900: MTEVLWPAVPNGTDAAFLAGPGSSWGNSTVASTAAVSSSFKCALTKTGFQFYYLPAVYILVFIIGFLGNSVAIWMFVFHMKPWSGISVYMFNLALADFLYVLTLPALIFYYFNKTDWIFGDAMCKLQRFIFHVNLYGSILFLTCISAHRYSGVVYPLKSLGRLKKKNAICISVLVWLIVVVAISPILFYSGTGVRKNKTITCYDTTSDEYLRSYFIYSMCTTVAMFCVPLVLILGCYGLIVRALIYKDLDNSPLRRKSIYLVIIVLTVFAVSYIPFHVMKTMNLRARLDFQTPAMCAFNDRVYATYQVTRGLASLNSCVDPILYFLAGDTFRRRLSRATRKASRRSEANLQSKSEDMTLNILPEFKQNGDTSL
UniProt P25024: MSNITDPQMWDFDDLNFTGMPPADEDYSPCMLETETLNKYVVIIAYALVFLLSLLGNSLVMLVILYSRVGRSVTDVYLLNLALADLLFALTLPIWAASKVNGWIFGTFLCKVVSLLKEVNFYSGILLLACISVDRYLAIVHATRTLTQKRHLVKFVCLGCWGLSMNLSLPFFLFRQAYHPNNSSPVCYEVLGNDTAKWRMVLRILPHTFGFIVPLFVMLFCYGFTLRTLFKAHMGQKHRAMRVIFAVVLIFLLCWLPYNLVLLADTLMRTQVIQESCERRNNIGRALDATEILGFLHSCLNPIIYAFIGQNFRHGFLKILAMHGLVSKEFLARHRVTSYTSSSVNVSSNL
UniProt P28223: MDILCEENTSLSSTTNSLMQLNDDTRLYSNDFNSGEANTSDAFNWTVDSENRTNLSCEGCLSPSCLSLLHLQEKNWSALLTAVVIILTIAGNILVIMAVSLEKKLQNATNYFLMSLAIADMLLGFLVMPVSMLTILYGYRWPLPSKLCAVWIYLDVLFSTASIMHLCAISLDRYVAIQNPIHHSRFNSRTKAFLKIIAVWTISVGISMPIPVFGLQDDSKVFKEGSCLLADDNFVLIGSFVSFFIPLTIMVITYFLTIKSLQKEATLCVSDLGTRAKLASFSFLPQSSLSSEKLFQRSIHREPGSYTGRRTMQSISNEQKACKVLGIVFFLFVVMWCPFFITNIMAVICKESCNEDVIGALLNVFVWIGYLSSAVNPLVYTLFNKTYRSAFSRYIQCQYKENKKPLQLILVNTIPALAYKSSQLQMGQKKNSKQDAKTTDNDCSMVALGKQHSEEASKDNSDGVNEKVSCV
UniProt P31391: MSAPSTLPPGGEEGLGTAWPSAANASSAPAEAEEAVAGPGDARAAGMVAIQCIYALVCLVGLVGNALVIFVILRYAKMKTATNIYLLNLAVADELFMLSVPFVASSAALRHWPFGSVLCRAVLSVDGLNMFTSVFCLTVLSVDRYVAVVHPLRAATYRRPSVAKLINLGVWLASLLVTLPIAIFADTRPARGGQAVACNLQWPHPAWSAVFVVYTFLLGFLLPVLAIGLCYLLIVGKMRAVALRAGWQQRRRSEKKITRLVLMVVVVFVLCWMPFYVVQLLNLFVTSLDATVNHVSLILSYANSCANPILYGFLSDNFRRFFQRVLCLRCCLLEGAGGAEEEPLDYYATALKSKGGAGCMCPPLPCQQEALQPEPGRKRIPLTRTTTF
UniProt O95136: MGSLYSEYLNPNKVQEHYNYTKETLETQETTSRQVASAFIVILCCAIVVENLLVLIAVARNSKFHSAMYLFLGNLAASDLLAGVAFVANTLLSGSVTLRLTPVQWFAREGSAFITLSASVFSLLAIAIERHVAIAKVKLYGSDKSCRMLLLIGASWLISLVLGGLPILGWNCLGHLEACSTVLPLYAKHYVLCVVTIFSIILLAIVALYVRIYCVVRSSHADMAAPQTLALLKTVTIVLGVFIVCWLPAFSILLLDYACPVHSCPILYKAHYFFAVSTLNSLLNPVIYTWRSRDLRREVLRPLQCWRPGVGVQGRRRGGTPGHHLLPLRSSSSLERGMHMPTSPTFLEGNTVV
UniProt Q9HBW0: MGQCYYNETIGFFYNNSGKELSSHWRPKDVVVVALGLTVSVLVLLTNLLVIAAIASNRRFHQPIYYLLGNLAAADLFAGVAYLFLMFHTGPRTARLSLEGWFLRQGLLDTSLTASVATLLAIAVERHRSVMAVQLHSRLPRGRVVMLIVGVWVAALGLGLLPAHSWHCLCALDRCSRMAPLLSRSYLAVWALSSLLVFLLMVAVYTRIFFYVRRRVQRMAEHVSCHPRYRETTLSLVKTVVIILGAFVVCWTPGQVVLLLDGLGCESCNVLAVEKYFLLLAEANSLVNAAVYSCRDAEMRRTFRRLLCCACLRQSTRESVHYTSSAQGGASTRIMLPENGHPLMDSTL
UniProt Q969V1: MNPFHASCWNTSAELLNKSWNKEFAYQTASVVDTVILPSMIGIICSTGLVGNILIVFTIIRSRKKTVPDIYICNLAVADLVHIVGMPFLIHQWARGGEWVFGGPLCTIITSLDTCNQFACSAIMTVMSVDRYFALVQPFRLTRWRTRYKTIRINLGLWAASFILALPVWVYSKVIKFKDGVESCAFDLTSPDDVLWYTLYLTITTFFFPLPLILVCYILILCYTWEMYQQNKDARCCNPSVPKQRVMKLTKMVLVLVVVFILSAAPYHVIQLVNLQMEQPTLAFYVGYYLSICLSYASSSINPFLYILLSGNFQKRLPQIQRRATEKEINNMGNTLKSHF
UniProt Q9NS75: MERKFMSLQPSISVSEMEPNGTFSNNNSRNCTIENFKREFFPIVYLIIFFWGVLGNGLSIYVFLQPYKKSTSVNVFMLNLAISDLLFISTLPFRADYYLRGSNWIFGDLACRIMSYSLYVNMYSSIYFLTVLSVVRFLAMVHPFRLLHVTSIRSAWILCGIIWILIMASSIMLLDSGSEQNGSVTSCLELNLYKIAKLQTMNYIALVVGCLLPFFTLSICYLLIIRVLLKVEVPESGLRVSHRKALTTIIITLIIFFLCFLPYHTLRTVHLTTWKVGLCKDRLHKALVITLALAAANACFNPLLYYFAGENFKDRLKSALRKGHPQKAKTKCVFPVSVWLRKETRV
UniProt P18089: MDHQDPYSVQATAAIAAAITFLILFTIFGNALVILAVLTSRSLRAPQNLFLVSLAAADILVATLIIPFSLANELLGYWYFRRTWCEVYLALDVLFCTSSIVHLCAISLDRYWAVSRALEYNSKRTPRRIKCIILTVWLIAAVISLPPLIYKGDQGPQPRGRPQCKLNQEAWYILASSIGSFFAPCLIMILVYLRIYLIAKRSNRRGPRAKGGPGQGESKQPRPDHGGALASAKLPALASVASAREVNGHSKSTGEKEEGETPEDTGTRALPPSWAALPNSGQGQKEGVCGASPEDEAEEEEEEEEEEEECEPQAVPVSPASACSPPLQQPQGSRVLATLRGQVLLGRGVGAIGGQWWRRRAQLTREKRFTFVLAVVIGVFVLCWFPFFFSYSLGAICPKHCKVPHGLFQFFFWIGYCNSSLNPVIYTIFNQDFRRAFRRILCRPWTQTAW
UniProt P41595: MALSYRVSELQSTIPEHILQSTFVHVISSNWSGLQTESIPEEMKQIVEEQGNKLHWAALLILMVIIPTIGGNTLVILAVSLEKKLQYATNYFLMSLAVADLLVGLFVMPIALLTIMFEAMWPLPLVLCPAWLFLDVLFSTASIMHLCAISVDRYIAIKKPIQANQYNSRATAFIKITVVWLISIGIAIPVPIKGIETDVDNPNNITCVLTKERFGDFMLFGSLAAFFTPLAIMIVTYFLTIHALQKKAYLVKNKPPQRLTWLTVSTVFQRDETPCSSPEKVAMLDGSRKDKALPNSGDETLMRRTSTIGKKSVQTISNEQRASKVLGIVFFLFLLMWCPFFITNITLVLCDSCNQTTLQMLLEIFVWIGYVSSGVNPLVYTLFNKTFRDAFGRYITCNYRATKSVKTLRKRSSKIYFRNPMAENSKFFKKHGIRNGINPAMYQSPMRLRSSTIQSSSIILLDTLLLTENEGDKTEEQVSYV
UniProt P49682: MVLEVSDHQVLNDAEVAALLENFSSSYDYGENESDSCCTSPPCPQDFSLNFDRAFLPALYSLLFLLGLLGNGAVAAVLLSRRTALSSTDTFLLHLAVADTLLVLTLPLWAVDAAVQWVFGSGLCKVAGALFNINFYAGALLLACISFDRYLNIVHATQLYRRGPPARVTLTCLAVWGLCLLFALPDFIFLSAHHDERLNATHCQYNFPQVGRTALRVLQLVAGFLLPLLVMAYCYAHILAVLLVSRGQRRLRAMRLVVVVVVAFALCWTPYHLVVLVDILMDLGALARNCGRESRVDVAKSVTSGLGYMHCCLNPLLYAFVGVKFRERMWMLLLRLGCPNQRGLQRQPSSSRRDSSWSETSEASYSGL
UniProt P35346: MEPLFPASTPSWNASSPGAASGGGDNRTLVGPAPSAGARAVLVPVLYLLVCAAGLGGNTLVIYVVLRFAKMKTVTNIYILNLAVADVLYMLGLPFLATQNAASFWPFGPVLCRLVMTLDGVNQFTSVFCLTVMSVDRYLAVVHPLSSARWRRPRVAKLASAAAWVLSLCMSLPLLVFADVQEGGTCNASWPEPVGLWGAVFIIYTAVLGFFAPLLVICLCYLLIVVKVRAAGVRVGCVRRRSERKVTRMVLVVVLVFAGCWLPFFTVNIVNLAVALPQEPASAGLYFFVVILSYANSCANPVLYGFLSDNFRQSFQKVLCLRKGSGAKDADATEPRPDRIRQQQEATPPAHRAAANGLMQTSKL
UniProt P30874: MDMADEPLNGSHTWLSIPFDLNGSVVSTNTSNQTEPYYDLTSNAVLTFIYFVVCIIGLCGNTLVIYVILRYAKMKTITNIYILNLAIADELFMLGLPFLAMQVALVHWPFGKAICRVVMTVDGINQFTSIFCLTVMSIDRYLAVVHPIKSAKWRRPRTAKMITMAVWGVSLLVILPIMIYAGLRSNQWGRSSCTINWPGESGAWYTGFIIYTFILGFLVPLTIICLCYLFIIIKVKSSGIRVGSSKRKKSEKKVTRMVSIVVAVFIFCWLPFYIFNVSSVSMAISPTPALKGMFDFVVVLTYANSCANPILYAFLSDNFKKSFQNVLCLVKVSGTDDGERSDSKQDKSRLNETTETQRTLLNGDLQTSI
UniProt P32302: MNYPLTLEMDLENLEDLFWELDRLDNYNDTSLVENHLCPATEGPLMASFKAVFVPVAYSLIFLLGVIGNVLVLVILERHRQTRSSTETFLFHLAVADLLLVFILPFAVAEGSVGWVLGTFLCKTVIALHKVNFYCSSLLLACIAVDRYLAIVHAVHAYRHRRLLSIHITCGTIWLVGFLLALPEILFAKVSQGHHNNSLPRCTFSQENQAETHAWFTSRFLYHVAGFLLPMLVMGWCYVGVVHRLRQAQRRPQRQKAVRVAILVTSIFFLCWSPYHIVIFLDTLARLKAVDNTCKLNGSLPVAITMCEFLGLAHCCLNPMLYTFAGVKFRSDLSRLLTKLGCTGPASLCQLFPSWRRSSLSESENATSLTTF
UniProt P25100: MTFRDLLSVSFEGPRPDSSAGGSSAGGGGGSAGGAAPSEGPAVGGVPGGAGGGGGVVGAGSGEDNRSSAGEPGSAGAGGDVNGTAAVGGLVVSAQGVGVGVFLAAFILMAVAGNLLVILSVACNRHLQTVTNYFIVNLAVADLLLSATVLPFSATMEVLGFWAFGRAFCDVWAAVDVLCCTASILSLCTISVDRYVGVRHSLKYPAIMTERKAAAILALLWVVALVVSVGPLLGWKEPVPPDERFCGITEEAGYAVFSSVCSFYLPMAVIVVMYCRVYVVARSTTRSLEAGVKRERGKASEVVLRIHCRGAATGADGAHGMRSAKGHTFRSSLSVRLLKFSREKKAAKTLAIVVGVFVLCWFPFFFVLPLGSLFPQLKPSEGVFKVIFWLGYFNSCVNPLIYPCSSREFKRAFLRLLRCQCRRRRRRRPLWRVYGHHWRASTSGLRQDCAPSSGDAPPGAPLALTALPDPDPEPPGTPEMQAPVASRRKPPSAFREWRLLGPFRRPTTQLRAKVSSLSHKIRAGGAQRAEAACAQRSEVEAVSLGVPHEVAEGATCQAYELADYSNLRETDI
UniProt Q9Y5N1: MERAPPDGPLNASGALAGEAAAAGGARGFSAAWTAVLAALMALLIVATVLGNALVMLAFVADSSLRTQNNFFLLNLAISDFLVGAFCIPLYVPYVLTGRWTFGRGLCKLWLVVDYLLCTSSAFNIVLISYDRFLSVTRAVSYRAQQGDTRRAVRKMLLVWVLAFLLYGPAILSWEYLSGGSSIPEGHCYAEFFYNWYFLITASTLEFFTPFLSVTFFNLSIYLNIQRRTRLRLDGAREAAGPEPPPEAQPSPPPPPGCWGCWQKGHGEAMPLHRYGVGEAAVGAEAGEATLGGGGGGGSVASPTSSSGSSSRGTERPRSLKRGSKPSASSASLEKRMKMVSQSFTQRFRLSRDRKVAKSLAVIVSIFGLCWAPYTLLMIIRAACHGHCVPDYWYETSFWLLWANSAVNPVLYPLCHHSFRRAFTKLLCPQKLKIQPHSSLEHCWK

[15] = target: SSTR2 (somatostatin receptor 2), TAP-tagged (human) (UniProt P30874)
[16] = target: CXCR5 (chemokine receptor), TAP-tagged (human) (UniProt P32302)
TAP–ADRA1D (human) = TAP–ADRA1D (human) (UniProt P25100)
[17] = target: HRH3 (histamine type 3 receptor), TAP-tagged (human) (UniProt Q9Y5N1)

B1: α-catulin (CTNNAL1) (protein, UniProt Q9UBT7 1-734)
chain: MAASPGPAGVGGAGAVYGSGSSGFALDSGLEIKTRSVEQTLLPLVSQITTLINHKDNTKKSDKTLQAIQRVGQAVNLAVGRFVKVGEAIANENWDLKEEINIACIEAKQAGETIAALTDITNLNHLESDGQITIFTDKTGVIKAARLLLSSVTKVLLLADRVVIKQIITSRNKVLATMERLEKVNSFQEFVQIFSQFGNEMVEFAHLSGDRQNDLKDEKKKAKMAAARAVLEKCTMMLLTASKTCLRHPNCESAHKNKEGVFDRMKVALDKVIEIVTDCKPNGETDISSISIFTGIKEFKMNIEALRENLYFQSKENLSVTLEVILERMEDFTDSAYTSHEHRERILELSTQARMELQQLISVWIQAQSKKTKSIAEELELSILKISHSLNELKKELHSTATQLAADLLKYHADHVVLKALKLTGVEGNLEALAEYACKLSEQKEQLVETCRLLRHISGTEPLEITCIHAEETFQVTGQQIISAAETLTLHPSSKIAKENLDVFCEAWESQISDMSTLLREINDVFEGRRGEKYGYLSLPKPMKNNANLKSLKPDKPDSEEQAKIAKLGLKLGLLTSDADCEIEKWEDQENEIVQYGRNMSSMAYSLYLFTRGEGPLKTSQDLIHQLEVFAAEGLKLTSSVQAFSKQLKDDDKLMLLLEINKLIPLCHQLQTVTKTSLQNKVFLKVDKCITKTRSMMALLVQLLSLCYKLLKKLQMENNGWVSVTNKDTMDSKT
binding [1]: no binding
binding [2]: no binding
binding [3]: no binding
binding [4]: no binding
binding [5]: no binding
binding [6]: no binding
binding [7]: no binding
binding [8]: no binding
binding [9]: no binding
binding [10]: no binding
binding [11]: no binding
binding [12]: no binding
binding [13]: no binding
binding [14]: no binding
binding [15]: no binding
binding [16]: no binding
binding (TAP–ADRA1D (human)): binds
binding [17]: no binding

B2: dystrobrevin-A (DTNA) (protein, UniProt Q9Y4J8 1-743)
chain: MIEDSGKRGNTMAERRQLFAEMRAQDLDRIRLSTYRTACKLRFVQKKCNLHLVDIWNVIEALRENALNNLDPNTELNVSRLEAVLSTIFYQLNKRMPTTHQIHVEQSISLLLNFLLAAFDPEGHGKISVFAVKMALATLCGGKIMDKLRYIFSMISDSSGVMVYGRYDQFLREVLKLPTAVFEGPSFGYTEQSARSCFSQQKKVTLNGFLDTLMSDPPPQCLVWLPLLHRLANVENVFHPVECSYCHSESMMGFRYRCQQCHNYQLCQDCFWRGHAGGSHSNQHQMKEYTSWKSPAKKLTNALSKSLSCASSREPLHPMFPDQPEKPLNLAHIVDTWPPRPVTSMNDTLFSHSVPSSGSPFITRSSPPKDSEVEQNKLLARAAPAFLKGKGIQYSLNVADRLADEHVLIGLYVNMLRNNPSCMLESSNRLDEEHRLIARYAARLAAESSSSQPPQQRSAPDISFTIDANKQQRQLIAELENKNREILQEIQRLRLEHEQASQPTPEKAQQNPTLLAELRLLRQRKDELEQRMSALQESRRELMVQLEGLMKLLKTQGAGSPRSSPSHTISRPIPMPIRSASACSTPTHTPQDSLTGVGGDVQEAFAQSSRRNLRNDLLVAADSITNTMSSLVKELNSEVGSETESNVDSEFARTQFEDLVPSPTSEKAFLAQIHARKPGYIHSGATTSTMRGDMVTEDADPYVQPEDENYENDSVRQLENELQMEEYLKQKLQDEAYQVSLQG
binding [1]: no binding
binding [2]: no binding
binding [3]: no binding
binding [4]: no binding
binding [5]: no binding
binding [6]: no binding
binding [7]: no binding
binding [8]: no binding
binding [9]: no binding
binding [10]: no binding
binding [11]: no binding
binding [12]: no binding
binding [13]: no binding
binding [14]: no binding
binding [15]: no binding
binding [16]: no binding
binding (TAP–ADRA1D (human)): binds
binding [17]: no binding

Reference: article PMC4658663
